Results deposited as PubChem BioAssay AID1259308 (NCATS, 2017)

Aim: 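Genes whose loss raises luciferase production in HEK293 cells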 (primary screen)
System: human HEK293 embryonic kidney cells stably expressing firefly luciferase (HEK-CMV-Luc2-Hygro)
Reagents: single siRNA against human genes, 0.8 pmol siRNA per well
Timing: 72 h
Detection: 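Reporter luminescence and viable-cell signal on separate replicate plates, given as percent of non-targeting control and median/MAD z-scores, plus per-cell luciferase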
Reading the numbers: total luciferase, z-score and total luciferase, % of control: higher = more reporter protein produced; luciferase per cell, z-score: higher = more reporter output per viable cell; viable cells, % of control: higher = more viable cells
Call rule: 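An siRNA counts as active if its total luciferase robust z-score exceeds 3; genes with two or more such siRNAs out of three were retested with fresh siRNAs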
Meaning of the calls: active = raised luciferase; inactive = no rise
The deposit covers about 59,000 reagents; shown is an unselected part. About 1,510 of all reagents (2.6%) were called active. 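Calls use total luciferase alone and ignore viability, so some active siRNAs may act by altering cell number.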 Unmarked entries are inactive. Reagents against one gene are numbered here. No sequences are given here.

Gene	siRNA no.	total luciferase, z-score	total luciferase, % of control	luciferase per cell, z-score	viable cells, % of control
FLJ32154 (retired record)	1	0.485	91.5	0.239	96
FLJ32154 (retired record)	2	1.21	106	0.668	99.2
FLJ32154 (retired record)	3	-0.252	76.9	-0.0342	86.7
CSPG4P5	1	-0.582	70.3	-0.11	80.9
CSPG4P5	2	0.197	85.8	-0.33	105
CSPG4P5	3	0.398	89.8	0.289	93
FANCB	1	0.358	89	0.608	84.7
FANCB	2	-0.00172	81.9	0.0877	89.4
FANCB	3	0.468	91.2	0.14	98.2
NOL3	1	-0.064	80.6	-0.467	102
NOL3	2	-1.65	49	-1.94	91.3
NOL3	3	-0.256	76.8	-0.483	97.4
HMOX1	1	0.0266	82.4	-1.39	133
HMOX1	2	1.86	119	0.526	116
HMOX1	3	0.674	95.3	0.686	88.9
PRDX1	1	0.884	99.5	0.296	103
PRDX1	2	-1.43	53.4	-0.779	73.3
PRDX1	3	-0.128	79.3	0.131	85.6
CARM1	1	-0.0663	80.6	0.957	70
CARM1	2	0.165	85.2	-0.581	111
CARM1	3	0.374	89.3	0.379	90.3
LPCAT4	1	4.41 (active)	170	3.02	85.5
LPCAT4	2	-0.293	76.1	-0.385	94.1
LPCAT4	3	-0.998	62	-0.939	88.8
HARBI1	1	-0.046	81	-0.235	96.3
HARBI1	2	0.74	96.6	1.61	70.7
HARBI1	3	-1.27	56.6	-1.46	92.8
NME1	1	-0.994	62.1	-1.25	96.3
NME1	2	0.0928	83.7	3.51	37.2
NME1	3	0.194	85.7	0.126	92.7
MRPS9	1	1.03	102	1.04	87
MRPS9	2	0.353	88.9	-0.552	115
MRPS9	3	-0.157	78.8	0.136	84.9
RGMB	1	-0.284	76.2	0.526	74.2
RGMB	2	-0.0681	80.5	0.198	85.4
RGMB	3	-0.173	78.4	-0.214	92.7
CTDSP2	1	2.11	124	2.03	81.2
CTDSP2	2	2.15	125	1.18	102
CTDSP2	3	-0.148	79	0.795	71.6

Records listed so far whose target name starts with H or h (6):
Gene	siRNA no.	total luciferase, z-score	total luciferase, % of control	luciferase per cell, z-score	viable cells, % of control
HMOX1	1	0.0266	82.4	-1.39	133
HMOX1	2	1.86	119	0.526	116
HMOX1	3	0.674	95.3	0.686	88.9
HARBI1	1	-0.046	81	-0.235	96.3
HARBI1	2	0.74	96.6	1.61	70.7
HARBI1	3	-1.27	56.6	-1.46	92.8
